Results: PMC5771398, “Structural basis for assembly of the CBF3 kinetochore complex” (The EMBO Journal, 2017)
For at least one entry, the source does not settle the construct or the ends of the probe. A negative result means that nothing was seen under these conditions. At least one verdict was read from the data and is not stated in words by the source.

System: Cep3 (wild type, core complex) + Ctf13 + Skp1 (wild type)
Assay: EMSA
Details: EMSA: complex (final buffer 10 mM HEPES, 300 mM NaCl, 1 mM DTT) mixed with DNA, 200 units lambda phosphatase and 1 mM MnCl2, 30 C 30 min, 0.8% agarose gel in TBE, recombinant protein

Row | Sequence | binding result (0.7 uM complex, 0.1 uM labelled DNA) | binding result (no lambda phosphatase (phosphorylated Skp1))
1 | AAATATTAGTGTATTTGATTTCCGAAAGTTAAA (double strand) [33 bp wild-type CEN3, FAM-labelled] | binds | 
2 | TATTAGTGTATTTGATTTCCGAAAGTTAAAAAAGAAATAGTAAGAAATATATATTT (double strand) [56 bp WT CEN3] |  | no binding
